Measurements reported in PMC4040711.
Results are given in words; binding and its absence hold for the method and conditions named. In cells and extracts the contact can be indirect. Some binding calls cover weakened binding; strength is not graded here.

Chains of the proteins cited; added tags and fusions are not shown. Lines headed by an entry give the natural chain unless they say otherwise; changes in a name come on top. A line that says so, or that is headed by a name, gives the form on record, which may keep a tag or linker.
UniProt P14618: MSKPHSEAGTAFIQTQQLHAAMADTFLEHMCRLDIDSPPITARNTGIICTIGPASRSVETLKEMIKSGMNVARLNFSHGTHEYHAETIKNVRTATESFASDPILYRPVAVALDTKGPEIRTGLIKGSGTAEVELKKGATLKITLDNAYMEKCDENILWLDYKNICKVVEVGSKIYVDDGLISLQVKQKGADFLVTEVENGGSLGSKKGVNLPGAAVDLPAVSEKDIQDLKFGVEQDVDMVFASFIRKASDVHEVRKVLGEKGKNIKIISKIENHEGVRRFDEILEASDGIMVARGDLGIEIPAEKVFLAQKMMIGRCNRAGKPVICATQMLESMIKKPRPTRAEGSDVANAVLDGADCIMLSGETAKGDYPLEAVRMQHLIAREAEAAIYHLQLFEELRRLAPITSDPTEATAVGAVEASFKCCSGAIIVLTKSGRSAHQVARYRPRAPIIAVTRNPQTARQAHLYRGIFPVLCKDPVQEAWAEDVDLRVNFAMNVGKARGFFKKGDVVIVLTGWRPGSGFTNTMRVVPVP
pyruvate kinase muscle isozyme 2 (PKM2), rat (rat (endogenous in NSCs and glioma spheroids)) (P11980, form named): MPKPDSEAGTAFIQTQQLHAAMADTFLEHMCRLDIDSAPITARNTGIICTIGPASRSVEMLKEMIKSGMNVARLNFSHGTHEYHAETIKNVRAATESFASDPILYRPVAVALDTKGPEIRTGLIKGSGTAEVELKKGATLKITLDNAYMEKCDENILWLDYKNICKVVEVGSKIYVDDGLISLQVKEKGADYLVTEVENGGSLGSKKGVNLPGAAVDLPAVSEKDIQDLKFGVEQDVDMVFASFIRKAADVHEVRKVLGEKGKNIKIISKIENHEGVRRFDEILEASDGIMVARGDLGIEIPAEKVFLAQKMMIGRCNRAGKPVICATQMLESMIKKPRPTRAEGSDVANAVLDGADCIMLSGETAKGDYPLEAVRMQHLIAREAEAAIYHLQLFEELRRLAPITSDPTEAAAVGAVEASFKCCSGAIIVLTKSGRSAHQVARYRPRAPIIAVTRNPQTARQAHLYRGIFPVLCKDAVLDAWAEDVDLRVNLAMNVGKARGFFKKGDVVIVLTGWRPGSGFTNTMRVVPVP
UniProt Q01860: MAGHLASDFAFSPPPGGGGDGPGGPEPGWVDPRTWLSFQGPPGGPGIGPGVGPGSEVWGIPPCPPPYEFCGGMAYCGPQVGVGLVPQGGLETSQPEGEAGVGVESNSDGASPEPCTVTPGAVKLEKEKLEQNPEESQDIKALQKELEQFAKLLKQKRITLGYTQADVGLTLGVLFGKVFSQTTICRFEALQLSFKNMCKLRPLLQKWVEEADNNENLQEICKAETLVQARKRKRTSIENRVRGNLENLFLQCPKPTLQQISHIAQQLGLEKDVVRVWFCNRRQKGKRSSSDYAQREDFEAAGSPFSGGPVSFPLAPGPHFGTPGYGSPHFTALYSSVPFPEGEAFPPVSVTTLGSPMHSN
UniProt Q6MG27: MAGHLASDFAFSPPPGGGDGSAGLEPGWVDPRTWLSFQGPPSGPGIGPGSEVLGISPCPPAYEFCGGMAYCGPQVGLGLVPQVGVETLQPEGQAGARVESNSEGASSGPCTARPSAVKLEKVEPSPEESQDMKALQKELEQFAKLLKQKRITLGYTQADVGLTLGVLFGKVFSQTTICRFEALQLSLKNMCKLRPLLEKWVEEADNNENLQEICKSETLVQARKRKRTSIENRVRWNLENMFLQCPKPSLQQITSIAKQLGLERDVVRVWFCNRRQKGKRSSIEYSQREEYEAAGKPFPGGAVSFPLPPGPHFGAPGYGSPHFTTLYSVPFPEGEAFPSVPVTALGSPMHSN

What was measured:
[1] = molecular target: pyruvate kinase muscle isozyme 2 (PKM2), human (human (endogenous in primary GBM cultures)) (UniProt P14618); assay: proximity ligation; Duolink PLA on fixed human glioma spheroids, control or DCA-treated; hypoxia (5% O2) for HIF-1, normoxia (20% O2) for H3
[2] = molecular target: pyruvate kinase muscle isozyme 2 (PKM2), rat (rat (endogenous in NSCs and glioma spheroids)) (UniProt P11980); assay: co-IP; PKM2 immunoprecipitated from lysates of DCA-treated rat glioma spheroids (P7sph) (CHAPS buffer, Catch and Release kit), Oct4 by immunoblot
[3] = molecular target: pyruvate kinase muscle isozyme 2 (PKM2), rat (rat (endogenous in NSCs and glioma spheroids)) (UniProt P11980); assay: proximity ligation; Duolink PLA on dissociated, fixed, untreated rat glioma spheroids
[4] = molecular target: pyruvate kinase muscle isozyme 2 (PKM2), rat (rat (endogenous in NSCs and glioma spheroids)) (UniProt P11980); assay: co-IP; PKM2 immunoprecipitated from rat NSC lysates (CHAPS buffer: 10 mM Hepes, 150 mM NaCl, 1% CHAPS, pH 7.4; Catch and Release kit), Oct4 by immunoblot; cells untreated or treated with DCA
[5] = molecular target: pyruvate kinase muscle isozyme 2 (PKM2), rat (rat (endogenous in NSCs and glioma spheroids)) (UniProt P11980); assay: proximity ligation; Duolink PLA on dissociated, fixed, DCA-treated rat glioma spheroids

| Substance | binding [1] | binding [2] | binding [3] | binding [4] | binding [5] |
| --- | --- | --- | --- | --- | --- |
| octamer-binding transcription factor 4 (Oct4), human (from UniProt Q01860 1-360) (other; other documents disagree on this pair) | binds |  |  |  |  |
| octamer-binding transcription factor 4 (Oct4), rat (from UniProt Q6MG27 1-352) |  | binds | binds weakly | binds | binds |
